Data as given in PMC5680560.
Results are given in words; binding and its absence hold for the method and conditions named. In cells and extracts the contact can be indirect. Some binding calls cover weakened binding; strength is not graded here.

Sequences of proteins named here, by UniProt entry; tags and fusion partners are left off.
UniProt O15524: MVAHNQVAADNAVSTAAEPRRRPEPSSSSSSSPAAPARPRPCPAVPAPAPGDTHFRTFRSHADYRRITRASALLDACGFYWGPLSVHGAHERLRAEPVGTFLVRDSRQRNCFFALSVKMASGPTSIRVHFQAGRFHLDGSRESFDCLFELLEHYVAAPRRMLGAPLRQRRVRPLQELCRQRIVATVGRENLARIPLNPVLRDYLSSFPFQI
UniProt Q13263: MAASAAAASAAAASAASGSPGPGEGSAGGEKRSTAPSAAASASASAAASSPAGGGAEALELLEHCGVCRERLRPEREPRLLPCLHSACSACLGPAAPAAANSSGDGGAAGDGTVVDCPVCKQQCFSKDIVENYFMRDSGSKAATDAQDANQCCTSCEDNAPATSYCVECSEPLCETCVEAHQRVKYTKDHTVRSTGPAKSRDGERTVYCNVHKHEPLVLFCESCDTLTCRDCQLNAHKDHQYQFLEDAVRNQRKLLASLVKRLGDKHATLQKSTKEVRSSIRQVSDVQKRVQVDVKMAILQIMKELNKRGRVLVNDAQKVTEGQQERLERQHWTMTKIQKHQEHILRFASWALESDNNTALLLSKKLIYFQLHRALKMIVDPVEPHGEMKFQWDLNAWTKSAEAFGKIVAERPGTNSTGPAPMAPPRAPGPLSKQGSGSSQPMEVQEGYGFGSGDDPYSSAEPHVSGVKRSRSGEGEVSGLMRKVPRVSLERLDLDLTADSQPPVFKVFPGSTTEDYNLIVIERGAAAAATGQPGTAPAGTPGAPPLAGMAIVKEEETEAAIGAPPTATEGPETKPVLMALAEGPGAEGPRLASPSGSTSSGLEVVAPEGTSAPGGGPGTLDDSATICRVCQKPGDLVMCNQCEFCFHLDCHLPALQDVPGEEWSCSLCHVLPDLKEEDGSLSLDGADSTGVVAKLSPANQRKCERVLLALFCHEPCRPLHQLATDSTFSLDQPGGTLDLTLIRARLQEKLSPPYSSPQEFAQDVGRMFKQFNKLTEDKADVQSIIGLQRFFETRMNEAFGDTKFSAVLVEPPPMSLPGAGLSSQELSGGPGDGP

What was measured:
[1] = biological target: SOCS1 (wild type, expressed in U2OS cells) (UniProt O15524); assay: co-IP; U2OS lysates (empty vector or SOCS1 overexpressing), 2 mg extract; IP with anti-KAP1 or, reciprocally, anti-SOCS1 or a control antibody overnight at 4°C, Protein A Sepharose; Cell Lysis Buffer (20 mM Tris-HCl pH 7.5, 150 mM NaCl, 1% Triton X-100); Western blots for KAP1 and SOCS1
[2] = biological target: KAP1 (endogenous, U2OS cells) (human (endogenous in U2OS)) (UniProt Q13263); assay: as above

| Substance | binding [1] | binding [2] |
| --- | --- | --- |
| KAP1 (endogenous, U2OS cells) (from UniProt Q13263 1-835) | binds | – |
| SOCS1 (wild type, expressed in U2OS cells) (from UniProt O15524 1-211) | – | binds |
